Assay results taken from the supplement of paper PMC9233669.
This sample is rich in variants without activity.

Columns and labels:
biotinyl-Trp-oxazolone = experiment: self-aminoacylation, catalytic enhancement (BWO) (fold over background); higher = more active; k-Seq, kA / k0A0; sequences stand for … in GGGAAUGGAUCCACAUCUACGAAUUC…UUCACUGCAGACUUGACGAAGCUG
Procedure, shortened: (§1)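 Catalytic enhancement equals the median kA over the uncatalyzed rate, the latter read from the low-activity peak of a bimodal Gaussian fit. Values of kA came from fitting each sequence's fraction reacted to a pseudo-first-order model, with 1000 bootstraps. Reacted RNA was captured with streptavidin and quantified by triplicate qPCR and Illumina sequencing after 90 minutes at room temperature with 2–1250 μM biotinyl-aminoacyl-oxazolone and 0.43 μM mutagenized RNA pools bearing a 21-nt variable region.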

biotinyl-Leu-oxazolone = experiment: self-aminoacylation, catalytic enhancement (BLO) (fold over background); higher = more active; k-Seq, kA / k0A0; sequences stand for … in GGGAAUGGAUCCACAUCUACGAAUUC…UUCACUGCAGACUUGACGAAGCUG
Procedure, shortened: as §1

biotinyl-Val-oxazolone = experiment: self-aminoacylation, catalytic enhancement (BVO) (fold over background); higher = more active; k-Seq, kA / k0A0; sequences stand for … in GGGAAUGGAUCCACAUCUACGAAUUC…UUCACUGCAGACUUGACGAAGCUG
Procedure, shortened: as §1

biotinyl-Ile-oxazolone = experiment: self-aminoacylation, catalytic enhancement (BIO) (fold over background); higher = more active; k-Seq, kA / k0A0; sequences stand for … in GGGAAUGGAUCCACAUCUACGAAUUC…UUCACUGCAGACUUGACGAAGCUG
Procedure, shortened: as §1

biotinyl-Met-oxazolone = experiment: self-aminoacylation, catalytic enhancement (BMO) (fold over background); higher = more active; k-Seq, kA / k0A0; sequences stand for … in GGGAAUGGAUCCACAUCUACGAAUUC…UUCACUGCAGACUUGACGAAGCUG
Procedure, shortened: as §1

biotinyl-Phe-oxazolone = experiment: self-aminoacylation, catalytic enhancement (BFO) (fold over background); higher = more active; k-Seq, kA / k0A0; sequences stand for … in GGGAAUGGAUCCACAUCUACGAAUUC…UUCACUGCAGACUUGACGAAGCUG
Procedure, shortened: as §1

Row | Sequence | self-aminoacylation (biotinyl-Trp-oxazolone) | self-aminoacylation (biotinyl-Leu-oxazolone) | self-aminoacylation (biotinyl-Val-oxazolone) | self-aminoacylation (biotinyl-Ile-oxazolone) | self-aminoacylation (biotinyl-Met-oxazolone) | self-aminoacylation (biotinyl-Phe-oxazolone)
1 | CAACACUUCACGCAAUCGGUC [Fam1B.1 aminoacylation ribozyme variant] | 1.11 | 1.06 | 1.24 | 1.25 | 0.988 | 0.818
2 | CAACACUUGAAGCAAUCGGUC [Fam1B.1 aminoacylation ribozyme variant] | 0.696 | 0.842 | 0.828 | 0.911 | 0.731 | 0.601
3 | CAACAUUUCAAGCAAUCGGUC [Fam1B.1 aminoacylation ribozyme variant] | 1.54 | 0.929 | 1.1 | 1.04 | 0.947 | 1.81
4 | CAACUUCAAACAAUCGGACUG [Fam1A.1 aminoacylation ribozyme variant] | 10.6 | 1.41 | 0.945 | 1.26 | 0.952 | 19.2
5 | CAACUUCAAACAAUCGGUCUC [Fam1A.1 aminoacylation ribozyme variant] | 37.7 | 1.9 | 1.5 | 1.63 | 1.74 | 75.3
6 | CAGCUUGCUAAUAGUCGCAAG [Fam3.1 aminoacylation ribozyme variant] | 1.72 | 1.89 | 1.86 | 1.82 | 1.72 | 2.54
7 | CAGUAUGCUAAUAGUCGCAAG [Fam3.1 aminoacylation ribozyme variant] | 1.28 | 1.52 | 0.949 | 1.2 | 1.34 | 1.61
8 | CAGUUUACUAAUAGUCGCAAG [Fam3.1 aminoacylation ribozyme variant] | 1.27 | 1.17 | 1.09 | 1.29 | 1.39 | 1.87
9 | CAGUUUGCUAAUAUUCGCAAG [Fam3.1 aminoacylation ribozyme variant] | 1.24 | 1.19 | 1.2 | 1.38 | 1.26 | 0.904
10 | CCAAACUUCAAGCAAUCCGUC [Fam1B.1 aminoacylation ribozyme variant] | 0.8 | 1.09 | 1.31 | 1.27 | 1.02 | 0.895
11 | CCAAAGUUCAAGCAAUCGGUC [Fam1B.1 aminoacylation ribozyme variant] | 1.17 | 1.28 | 1.4 | 1.35 | 1.32 | 1.35
12 | CCACAAUCCAAGCAAUCGGUC [Fam1B.1 aminoacylation ribozyme variant] | 0.895 | 1.14 | 1.33 | 1.2 | 1.17 | 1.12
13 | CCACAAUUCCAGCAAUCGGUC [Fam1B.1 aminoacylation ribozyme variant] | 1.18 | 1.51 | 1.66 | 1.83 | 1.63 | 1.2
14 | CCACACAUCAUGCAAUCGGUC [Fam1B.1 aminoacylation ribozyme variant] | 0.729 | 0.639 | 0.893 | 0.907 | 0.465 | 1.04
15 | CCACACCUCAAGCAAUCGUUC [Fam1B.1 aminoacylation ribozyme variant] | 0.894 | 0.739 | 0.914 | 0.934 | 0.779 | 1.11
16 | CCACACCUCAAGCAAUGGGUC [Fam1B.1 aminoacylation ribozyme variant] | 0.995 | 0.99 | 1.07 | 0.965 | 0.705 | 0.543
17 | CCACACCUCAAGUAAUCGGUC [Fam1B.1 aminoacylation ribozyme variant] | 1.4 | 1.3 | 1.01 | 1.27 | 1.15 | 1.31
18 | CCACACGUAAAGCAAUCGGUC [Fam1B.1 aminoacylation ribozyme variant] | 0.912 | 0.993 | 1.51 | 1.23 | 1.02 | 0.954
19 | CCACACGUCAAGCAACCGGUC [Fam1B.1 aminoacylation ribozyme variant] | 0.823 | 1.51 | 2 | 1.19 | 1.4 | 0.895
20 | CCACACGUCAAGCAAUAGGUC [Fam1B.1 aminoacylation ribozyme variant] | 0.587 | 0.652 | 0.831 | 0.655 | 0.765 | 1.1
21 | CCACACGUCAAGCAAUCGGAC [Fam1B.1 aminoacylation ribozyme variant] | 0.681 | 1.36 | 2.03 | 1.53 | 1.14 | 0.667
22 | CCACACGUCAAGCAAUCGGUA [Fam1B.1 aminoacylation ribozyme variant] | 1.09 | 1.29 | 1.98 | 1.25 | 1.52 | 1.03
23 | CCACACGUCAAGCGAUCGGUC [Fam1B.1 aminoacylation ribozyme variant] | 1.61 | 1.11 | 2.3 | 1.21 | 1.14 | 1.06
24 | CCACACGUCAAGGAAUCGGUC [Fam1B.1 aminoacylation ribozyme variant] | 0.976 | 1.19 | 1.25 | 0.962 | 1.19 | 0.659
25 | CCACACGUCAAGUAAUCGGUC [Fam1B.1 aminoacylation ribozyme variant] | 0.752 | 0.992 | 1.16 | 0.93 | 0.957 | 0.888
26 | CCACACUACAACCAAUCGGUC [Fam1B.1 aminoacylation ribozyme variant] | 0.672 | 0.836 | 0.751 | 0.729 | 0.712 | 0.544

Row | Sequence | self-aminoacylation (biotinyl-Trp-oxazolone) | self-aminoacylation (biotinyl-Leu-oxazolone) | self-aminoacylation (biotinyl-Val-oxazolone) | self-aminoacylation (biotinyl-Ile-oxazolone) | self-aminoacylation (biotinyl-Met-oxazolone) | self-aminoacylation (biotinyl-Phe-oxazolone)
27 | CCACACUACAAGAAAUCGGUC [Fam1B.1 aminoacylation ribozyme variant] | 1.2 | 0.716 | 0.8 | 0.898 | 1.01 | 0.911
28 | CCACACUACAAGCAAUCGGGC [Fam1B.1 aminoacylation ribozyme variant] | 1.16 | 1.03 | 1.36 | 1.45 | 0.957 | 1.38
29 | CCACACUACACGCAAUCGGUC [Fam1B.1 aminoacylation ribozyme variant] | 0.906 | 0.771 | 1 | 1.01 | 0.829 | 1.02
30 | CCACACUCCAAGCUAUCGGUC [Fam1B.1 aminoacylation ribozyme variant] | 1.08 | 1.05 | 1.09 | 1.23 | 0.97 | 0.875
31 | CCACACUCGAAGCAAUCGGUC [Fam1B.1 aminoacylation ribozyme variant] | 0.864 | 0.764 | 1.11 | 1.2 | 1.1 | 1.07
32 | CCACACUGCAAGCAAUCCGUC [Fam1B.1 aminoacylation ribozyme variant] | 0.998 | 0.969 | 1.33 | 1.42 | 1.04 | 0.969
33 | CCACACUGCAAGCAAUCGGCC [Fam1B.1 aminoacylation ribozyme variant] | 3.9 | 1.99 | 5.56 | 3.29 | 2.93 | 20.5
34 | CCACACUUAAAGCAAUCGGAC [Fam1B.1 aminoacylation ribozyme variant] | 0.847 | 0.625 | 0.915 | 0.878 | 0.763 | 0.601
35 | CCACACUUAAAGCAAUCGGCC [Fam1B.1 aminoacylation ribozyme variant] | 1.7 | 2.15 | 1.97 | 1.72 | 1.71 | 7.34
36 | CCACACUUAAAGCAAUCGGUC [Fam1B.1 aminoacylation ribozyme variant] | 0.708 | 0.707 | 0.941 | 0.88 | 0.714 | 0.957
37 | CCACACUUCAAGAAAUAGGUC [Fam1B.1 aminoacylation ribozyme variant] | 0.419 | 0.41 | 0.537 | 0.487 | 0.46 | 0.733
38 | CCACACUUCAAGCAAGAGGUC [Fam1B.1 aminoacylation ribozyme variant] | 0.459 | 0.588 | 0.579 | 0.647 | 0.62 | 0.639
39 | CCACACUUCAAGCAAGCGAUC [Fam1B.1 aminoacylation ribozyme variant] | 0.313 | 0.526 | 0.637 | 0.583 | 0.504 | 0.617
40 | CCACACUUCAAGCAAGGGGUC [Fam1B.1 aminoacylation ribozyme variant] | 0.677 | 0.784 | 0.784 | 0.687 | 0.574 | 0.923
41 | CCACACUUCAAGCAAUCAGCC [Fam1B.1 aminoacylation ribozyme variant] | 2.26 | 1.51 | 1.72 | 1.04 | 0.884 | 3.01
42 | CCACACUUCAAGCAAUCAGGC [Fam1B.1 aminoacylation ribozyme variant] | 1.04 | 0.729 | 1.01 | 0.856 | 0.59 | 0.979
43 | CCACACUUCAAGCAAUCCGUC [Fam1B.1 aminoacylation ribozyme variant] | 0.828 | 0.664 | 1.01 | 0.894 | 0.659 | 1.34
44 | CCACACUUCAAGCAAUCUUUC [Fam1B.1 aminoacylation ribozyme variant] | 0.468 | 0.463 | 0.644 | 0.589 | 0.489 | 1.1
45 | CCACACUUCAAGCAAUGGGAC [Fam1B.1 aminoacylation ribozyme variant] | 1.54 | 0.783 | 1.26 | 1.19 | 1.12 | 0.964
46 | CCACACUUCAAGCAAUGUGUC [Fam1B.1 aminoacylation ribozyme variant] | 0.538 | 0.586 | 0.738 | 0.672 | 0.541 | 1.22
47 | CCACACUUCAAGCACUCCGUC [Fam1B.1 aminoacylation ribozyme variant] | 0.939 | 1.05 | 1.24 | 1.27 | 1.03 | 0.705
48 | CCACACUUCAAGCACUCUGUC [Fam1B.1 aminoacylation ribozyme variant] | 0.416 | 0.321 | 0.502 | 0.486 | 0.423 | 0.695
49 | CCACACUUCAAGCAGUUGGUC [Fam1B.1 aminoacylation ribozyme variant] | 0.38 | 0.518 | 0.686 | 0.704 | 0.649 | 0.619
50 | CCACACUUCAAGCCAUCGGCC [Fam1B.1 aminoacylation ribozyme variant] | 4.97 | 2.85 | 5 | 2.98 | 3.33 | 5.27
51 | CCACACUUCAAGCGAUCCGUC [Fam1B.1 aminoacylation ribozyme variant] | 1.08 | 1.25 | 1.24 | 1.16 | 1.06 | 0.723
